Values from PubChem BioAssay AID1259424 (University of Nebraska Medical Center, 2018)

Aim: 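Rank knockdowns across the genome by resemblance to the KSR1 depletion profile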 (primary screen)
System: human HCT116 colon cancer cells
Reagent: siRNA pool against human genes, 50 nM
Detection: 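Six signature mRNAs by branched-DNA multiplex assay, scaled to two housekeeping genes and non-targeting median, log2; matched to mean KSR1 knockdown profile by Pearson correlation and euclidean distance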
Direction: mean correlation with KSR1 profile: higher = expression change more like KSR1 knockdown
Here is a random part of about 14,000 reagents. 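Higher correlation or smaller distance means closer resemblance to KSR1 loss; control wells, including KSR1 knockdowns, recur on many plates.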 Further read-outs or replicates are left out here. No sequences are given here. Not stated in the record: the time to read-out.

With HNRNPAB, what does the deposit list?
mean correlation with KSR1 profile: -0.196

With MTMR7, what does the deposit list?
mean correlation with KSR1 profile: -0.713

Which result is listed for STARD10?
mean correlation with KSR1 profile: -0.604

Which result is listed for CYP27B1?
mean correlation with KSR1 profile: -0.407

What is on record for TAS2R38?
mean correlation with KSR1 profile: -0.316

How did the screen score TFR2?
mean correlation with KSR1 profile: 0.57

Already shown: entries from further up.
HNRNPAB → mean correlation with KSR1 profile = -0.196
MTMR7 → mean correlation with KSR1 profile = -0.713

The results go on.
With CYP2A13, what was measured?
mean correlation with KSR1 profile: 0.687

For RPS26, what does the deposit list?
mean correlation with KSR1 profile: 0.173

With PLD2, how do the results read?
mean correlation with KSR1 profile: -0.309

With INSIG1, what was measured?
mean correlation with KSR1 profile: -0.124

With SCUBE2, what does the deposit list?
mean correlation with KSR1 profile: 0.581

For RRP8, what was measured?
mean correlation with KSR1 profile: 0.699
